# Results of single-concentration screens

Sequences of proteins named here, by UniProt entry; tags and fusion partners are left off. Residues count along the entry.
UniProt Q4DA54, 1-478: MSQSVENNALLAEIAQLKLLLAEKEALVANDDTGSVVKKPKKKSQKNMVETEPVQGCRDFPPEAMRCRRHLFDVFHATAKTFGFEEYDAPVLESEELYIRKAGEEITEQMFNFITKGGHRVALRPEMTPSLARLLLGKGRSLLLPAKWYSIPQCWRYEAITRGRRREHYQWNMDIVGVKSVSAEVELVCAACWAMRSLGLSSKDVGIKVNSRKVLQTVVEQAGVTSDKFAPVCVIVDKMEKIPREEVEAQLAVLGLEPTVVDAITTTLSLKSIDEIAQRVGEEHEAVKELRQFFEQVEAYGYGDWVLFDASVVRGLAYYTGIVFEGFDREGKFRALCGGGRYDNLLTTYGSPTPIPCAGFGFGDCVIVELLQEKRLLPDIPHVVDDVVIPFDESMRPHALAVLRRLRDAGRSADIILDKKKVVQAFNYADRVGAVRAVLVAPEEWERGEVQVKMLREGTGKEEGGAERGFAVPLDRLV
UniProt P9WPC5, whole entry: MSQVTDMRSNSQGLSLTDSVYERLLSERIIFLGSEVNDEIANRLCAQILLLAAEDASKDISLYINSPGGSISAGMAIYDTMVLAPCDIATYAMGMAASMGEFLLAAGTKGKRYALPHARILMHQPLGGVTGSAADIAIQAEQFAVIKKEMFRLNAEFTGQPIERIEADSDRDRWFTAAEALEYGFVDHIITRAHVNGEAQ
UniProt P9WPC3, whole entry partner: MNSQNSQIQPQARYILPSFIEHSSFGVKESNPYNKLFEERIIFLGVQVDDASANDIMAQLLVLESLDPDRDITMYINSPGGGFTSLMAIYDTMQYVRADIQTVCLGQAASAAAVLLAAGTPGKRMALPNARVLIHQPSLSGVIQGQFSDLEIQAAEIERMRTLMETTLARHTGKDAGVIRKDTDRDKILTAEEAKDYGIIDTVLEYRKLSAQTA
UniProt Q8IDJ8, 1-583: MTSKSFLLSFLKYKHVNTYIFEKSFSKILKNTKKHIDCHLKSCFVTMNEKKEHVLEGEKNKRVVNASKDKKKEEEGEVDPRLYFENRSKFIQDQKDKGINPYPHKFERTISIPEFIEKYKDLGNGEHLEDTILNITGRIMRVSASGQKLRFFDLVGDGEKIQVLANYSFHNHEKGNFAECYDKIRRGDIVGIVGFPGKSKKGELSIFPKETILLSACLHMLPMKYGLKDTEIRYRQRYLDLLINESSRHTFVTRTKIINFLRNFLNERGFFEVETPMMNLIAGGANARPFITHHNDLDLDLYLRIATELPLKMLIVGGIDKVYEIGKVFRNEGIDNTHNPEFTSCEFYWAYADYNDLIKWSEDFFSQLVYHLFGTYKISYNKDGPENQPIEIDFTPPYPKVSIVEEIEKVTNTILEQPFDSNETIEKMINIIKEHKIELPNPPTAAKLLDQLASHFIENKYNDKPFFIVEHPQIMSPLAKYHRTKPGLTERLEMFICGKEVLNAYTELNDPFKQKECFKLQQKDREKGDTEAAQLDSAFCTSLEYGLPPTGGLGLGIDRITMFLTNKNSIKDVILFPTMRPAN

A: 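Cell assay of Leishmania donovani living inside macrophages; the read-out is not stated. Concentration: 30 µM. Higher reads as stronger inhibition (inferred: compounds with an IC50 in retests scored well above the rest). About 69,000 compounds were tested under these conditions; 1.5% (about 1,000) showed 50% or more at least once.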
B: 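Histidine-tRNA ligase, Trypanosoma cruzi CL Brener (UniProt Q4DA54). Enzyme assay of histidyl-tRNA synthetase; the read-out is not stated. Compounds at 30 µM. Higher reads as stronger inhibition (inferred: compounds with an IC50 in retests scored well above the rest). Of about 69,000 compounds tested this way, about 31 (0.045%) reached 50% or more in at least one test.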
C: 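ClpP1P2, Mycobacterium tuberculosis (UniProt P9WPC5 and UniProt P9WPC3). Protease assay of ClpP1P2, read by the AMC dye that it sets free. Concentration: 50 µM. Direction is inferred from only a few compounds that gave an IC50; most scored high, so higher reads as stronger inhibition. Most other retested compounds had strongly negative values. About 69,000 compounds were tested under these conditions; 0.015% (about 10) showed 50% or more at least once.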
D: 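Assay of Toxoplasma gondii numbers, read through their beta-galactosidase reporter with a colour substrate. Tested at 10 µM. Higher reads as fewer parasites (inferred from which compounds were picked for retests). Of about 67,000 compounds tested this way, about 260 (0.38%) reached 50% or more in at least one test.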
E: 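Enzyme assay of the cytosolic lysyl-tRNA synthetase in 384-well plates, read by luminescence. Target: Lysine-tRNA ligase, Plasmodium falciparum 3D7 (UniProt Q8IDJ8). Concentration: 30 µM. Higher reads as stronger inhibition, judged from the few compounds that gave an IC50. Of about 69,000 compounds tested this way, about 49 (0.071%) reached 50% or more in at least one test.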

Each number is a percent effect as filed. The record does not define 0% and 100%; most values in the screen are far below 50% and negative numbers occur (in some assays of this library far below -100). This is an unselected part of the compounds tested.

Cc1ccnc(NC(=O)C2CCN(CCCc3cn[nH]c3)CC2)c1 read A: 7.832%; B: 4.094%; C: -8.619%; D: -1.597%; E: 4.704%. For Cc1ccc(NC(=O)c2cc3c(=O)n(C)c(=O)n(C)c3nc2C)cc1Cl the result was A: 14.27%; B: -40.8%; C: -12.41%; D: -4.372%; E: -0.2668%. Result for [H][C@@]12CCN(S(=O)(=O)c3ccccc3F)C[C@]1(C(=O)NC)CCO2 was A: -14.12%; D: -6.931%. For Cc1ccccc1CCNC(=O)C1CC(=O)N(CC(F)(F)F)C1 (stereo not drawn) the result was A: 9.865%; B: 1.504%; C: 18.59%; D: -4.423%; E: 1.541%.

Cc1ccccc1[C@@H]1CN(Cc2c(C)noc2C)C[C@H]1C(=O)O read A: 10.77%; B: -0.5128%; C: -5.239%; D: -5.971%; E: 1.727%. [H][C@]12CNC[C@@]1(C(=O)NCCOc1ccccc1F)CN(C(C)=O)C2 read A: 15.79%; D: -0.7115%. CS(=O)(=O)N1CCCC(c2nc(-c3ccccc3)c[nH]2)C1 (stereo not drawn) read A: -5.528%; B: 11.36%; C: 5.034%; D: -17.6%; E: 2.626%. CC1CN(C)CCN1C(=O)c1ccn(-c2cccc(F)c2)n1 (stereo not drawn) gave A: 3.559%; B: 2.299%; C: -5.192%; D: -1.19%; E: 2.674%.

Result for O=C(Nc1nncs1)N1CCCN(C2CCCCC2)CC1 was A: 14.72%; B: 2.41%; C: -12.1%; D: -15.32%; E: 5.527%. For CC(SCC(=O)N(C)CC(=O)NC1CC1)c1ccc(F)c(F)c1 (stereo not drawn) the result was A: 27.87%; B: 0.431%; C: -11.75%; D: 0.7801%; E: 3.985%. O=C(N[C@@H]1CCNC[C@H]1O)c1ccc(F)c(F)c1 gave A: -28.62%; B: 4.167%; C: 3.585%; D: 0.5612%; E: -5.649%. CN(C)S(=O)(=O)N1CC[C@]2(C[C@H](Oc3ncccc3F)CO2)C1.O=C(O)C(F)(F)F read A: 25.29%; D: 8.984%.

COCCN1CCc2cc(C(=O)O)c(-c3ccoc3)nc2CC1 read B: 1.97%; C: -16.44%; E: -4.505%. For CN(C)CCn1cc(NC(=O)NC(C)(C)c2nccs2)cn1 the result was A: 7.741%; B: 3.448%; C: 0.1745%; D: 0.5895%; E: 8.151%. For Cn1cccc1C(=O)NCc1cn2c(n1)CN(CC1CCOCC1)CC2 the result was B: 3.067%; C: -9.096%; E: 3.564%. Result for Cc1ccc(CN2CCS(=O)(=O)C(C)(C)C2)cc1C was A: -0.7762%; B: 3.015%; C: -5.034%; D: -16.98%; E: -5.547%.

CC(=O)c1cn(CCC(=O)NCCC(=O)O)c2ccccc12 read A: 18%; B: -4.918%; C: 5.133%; D: -8.129%; E: 6.939%. With O=C(O)C(F)(F)F.O=C(O)C(F)(F)F.[H][C@@]12CN(Cc3ccc(F)cc3)C[C@]1([H])OCCN2Cc1c(C)noc1C the screen gave A: 23.07%; D: 5.578%. For O=C(N[C@H]1CCCC[C@@H]1O)c1cccc(-c2nc3ccccc3[nH]2)c1 the result was A: 13.27%; B: 17.05%; C: -10.91%; D: -9.33%; E: 3.229%. Result for CC1CCC(O)(CN2CCN(CCNC(=O)C3CCC3)CC2)CC1 (stereo not drawn) was A: 11.64%; B: 3.665%; C: 6.768%; D: 3.077%; E: 4.958%.

NC(=O)C1(Cc2ccc(-c3ccccc3)cc2)CCNC1 (stereo not drawn) gave A: -14.46%; B: 7.143%; C: 8.981%; D: -17.31%; E: -2.914%. With Cc1cc2nc(-c3cn(C4CCNCC4)nn3)[nH]c2cc1C the screen gave A: 79.71%; B: 2.762%; C: -1.5%; D: 6.93%; E: 3.351%. CC(C)N1CCC(O)(CNC(=O)CC2OCCc3ccccc32)CC1 (stereo not drawn) read A: 0.3435%; B: 5.319%; C: -14.46%; D: -1.955%; E: 3.3%. c1cn(Cc2ccc(N3CCCN(C4CCCC4)CC3)nc2)cn1 gave A: 60.72%; B: 6.03%; C: 17.68%; D: 22.75%; E: -6.812%.

With O=C(O)C(F)(F)F.O=C1Nc2ccccc2C12CCN(c1nccs1)CC2 the screen gave A: 8.273%; D: -10.76%.

The values are deposited in ChEMBL (CHEMBL3988442, “University of Dundee, Small-Polar-MMV Screening Library” (2021)).